Source: PubChem BioAssay AID485314 (National Center for Advancing Translational Sciences (NCATS), 2010)
The campaign covered roughly 340,000 compounds. About 4,500 (1.3%) were called active. The inconclusive results got no clear call from the source; some entries with a clear call stand among them for comparison. Calls come from the whole dose curve; as a rule, active = well fitted inhibition curve with a large enough effect; inconclusive = small, poorly fitted or top-dose-only effect, or another doubt; inactive = no such curve, though single readings can be large or run the other way. Where the call is inconclusive, the potency comes from a doubtful curve fit.

molecular target: DNA polymerase beta (Homo sapiens) (UniProt P06746); test: qHTS Assay for Inhibitors of DNA Polymerase Beta; conditions: Pol beta primer extension/strand displacement, fluorescence kinetic; activity change, negative = inhibition: at 114 µM (top of the series)
Outline: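 Pol beta (10 nM) and compounds were preincubated 15 min at room temperature, then 50 nM substrate (final) started primer extension/strand displacement. Reads were taken at 0 and 10 min; concentration-response data were fitted to a four-parameter Hill equation.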
% is set by controls: 0 for no effect and ±100 for the full control effect; potency is the fitted concentration of half-maximal effect.

Row | Compound | activity change, negative = inhibition | Potency
1 | CCCN1C(=O)/C(=C/c2ccco2)SC1=Nc1ccc(OC)cc1 | inactive: -13.2% | –
2 | Cc1cc(Nc2cc(C)on2)n2ncnc2n1 | – | inconclusive: 35.5 µM [inhibitor, single point]
3 | COc1ccc(C2/C(=C(/O)c3ccccc3)C(=O)C(=O)N2CCO)cc1 (stereo unspecified) | – | inconclusive: 39.8 µM [inhibitor, single point]
4 | Cc1cccc(NC(=O)C2C3C=CC(C4CC34)C2C(=O)O)c1 (stereo unspecified) | – | inconclusive: 39.8 µM [inhibitor, partial curve, poor fit]
5 | CN1CCN(S(=O)(=O)c2ccc(NC(=O)Cc3cccs3)cc2)CC1 | – | inconclusive: 17.8 µM [inhibitor, full curve, poor fit]
6 | CCOc1ccc(N2C(=O)CC(NCCNc3ccc([N+](=O)[O-])cn3)C2=O)cc1 (stereo unspecified) | – | inconclusive: 70.8 µM [inhibitor, single point]
7 | O=C(O)c1ccc(/C=N/n2cc(-c3ccccc3)[nH]c2=S)cc1 | inactive: 2.44% | –
8 | CNC(=O)C1CC(=O)N(CCCc2ccccc2)C(=Nc2ccccc2)S1 (stereo unspecified) | inactive: -1.96% | –
9 | COc1ccc(NC(=O)CSc2ncnc3sc(C)cc23)cc1 | inactive: 28.7% | –
10 | Nc1cc(N)nc(SCC(=O)NNC(=O)Cc2ccccc2)n1 | – | inconclusive: 100 µM [inhibitor, single point]
11 | Cc1ccc(N=Nc2ccc(O)c(P(=O)(c3ccccc3)c3ccccc3)c2)cc1 | – | inconclusive: 50.1 µM [inhibitor, single point]
12 | Fc1ccc(-c2nc3c(-c4ccc(Cl)cc4)cnn3cc2CCN2CCOCC2)cc1 | – | inconclusive: 39.8 µM [inhibitor, single point]
13 | O=C(O)c1ccc(CSc2ccccn2)cc1 | – | inconclusive: 0.794 µM [inhibitor, full curve, poor fit]
14 | COc1ccc(Cn2c(=S)[nH]c3cc(C(=O)NCc4cccnc4)ccc3c2=O)cc1 | – | inconclusive: 100 µM [inhibitor, single point]
15 | CCc1ccc(Nc2nn3c(=O)c4cc5c(cc4nc3s2)OCO5)cc1 | – | inconclusive: 20 µM [inhibitor, single point]
16 | CCOc1ccc(/C(O)=C2/C(=O)C(=O)N(CCCN3CCOCC3)C2c2ccc(C)cc2)cc1C (stereo unspecified) | – | inconclusive: 28.2 µM [inhibitor, single point]
17 | O=C(O)c1[nH]c2ccccc2c1C(c1cc(Br)ccc1O)c1c(C(=O)O)[nH]c2ccccc12 | – | active: 79.4 µM
18 | CCn1c(=O)c2cc(C(=O)Nc3cc(C)c(Cl)cc3OC)sc2c2ccccc21 | inactive: 7.56% | –
19 | O=[N+]([O-])c1cccc(Nc2c3ccccc3nc3ccccc23)c1 | – | inconclusive: 0.126 µM [inhibitor, full curve, poor fit]
20 | CCCCCCCCCCn1c2c(c(=N)c3c1CCC3)CCC2 | – | inconclusive: 39.8 µM [inhibitor, partial curve]
21 | O=C(CC1C(=O)NCCN1Cc1ccc(-c2ccccc2)cc1)NCC1CCOCC1 (stereo unspecified) | – | inconclusive: 63.1 µM [inhibitor, single point]
22 | Cc1nnc(N2CCCC(C(=O)Nc3ccccc3C(F)(F)F)C2)c2nn(-c3ccccc3)c(C)c12 (stereo unspecified) | – | inconclusive: 89.1 µM [inhibitor, single point]

Given in markdown: entries from further up

| Row | Compound | activity change, negative = inhibition | Potency |
| --- | --- | --- | --- |
| 5 | CN1CCN(S(=O)(=O)c2ccc(NC(=O)Cc3cccs3)cc2)CC1 | – | inconclusive: 17.8 µM [inhibitor, full curve, poor fit] |
| 6 | CCOc1ccc(N2C(=O)CC(NCCNc3ccc([N+](=O)[O-])cn3)C2=O)cc1 (stereo unspecified) | – | inconclusive: 70.8 µM [inhibitor, single point] |

Next part.

Row | Compound | activity change, negative = inhibition | Potency
23 | NC(=O)N(CCC(=O)O)c1ccccc1 | – | active: 20 µM
24 | COc1ccc(CNC(=O)c2cc(-c3cccs3)nc3ccccc23)c(OC)c1 | inactive: -0.911% | –
25 | Cc1cc(Cl)c2oc(C(=O)N(C)Cc3cc(C)[nH]n3)c(C)c2c1 | – | inconclusive: 2.82 µM [inhibitor, single point]
26 | COc1ccc(-n2c(SCC(=O)N3CCCCC3)nc(O)cc2=O)cc1 | – | inconclusive: 1 µM [inhibitor, full curve, poor fit]
27 | CCN(CC)S(=O)(=O)c1cc(NC(=O)C(C)Nc2ccccc2N2CCOCC2)ccc1C (stereo unspecified) | – | inconclusive: 79.4 µM [inhibitor, single point]
28 | CC1=C(C(=O)Nc2ccccc2C)C(c2ccc[nH]2)n2ncnc2N1 (stereo unspecified) | – | active: 39.8 µM
29 | O=C(c1ccc(Cl)c(S(=O)(=O)N2CCCC2)c1)N1CCN(c2ccc(F)cc2)CC1 | – | inconclusive: 22.4 µM [inhibitor, full curve]
30 | Cc1ccc(-c2noc(CNS(=O)(=O)c3ccccc3)n2)cc1 | inactive: -1.87% | –
31 | CCOC(=O)Cn1c(=O)cc(C)c2c(C)nn(-c3cccc(F)c3)c21 | – | inconclusive: 79.4 µM [inhibitor, single point]
32 | O=C(/C=C/c1ccc(O)c([N+](=O)[O-])c1)c1ccc2ccccc2c1 | – | inconclusive: 50.1 µM [inhibitor, partial curve, poor fit]
33 | CCc1cccc(C)c1NC(=O)CC(C)(C)CC(=O)O | – | inconclusive: 4.47 µM [inhibitor, partial curve]
34 | O=C(COc1cccc2ccccc12)N/N=C/c1ccccc1OCc1ccc(C(=O)O)cc1 | – | active: 89.1 µM
35 | COCCOc1cc(NC(=O)c2sccc2Oc2ccc([N+](=O)[O-])cc2F)c(Cl)cc1Cl | – | inconclusive: 79.4 µM [inhibitor, single point]
36 | CC(C)(C)c1ccc(OC(=O)Nc2ccc(O)c(C(=O)O)c2)cc1 | – | inconclusive: 100 µM [inhibitor, partial curve]
37 | CC1CN(C(=S)NC(=O)c2ccc([N+](=O)[O-])cc2)CC(C)O1 (stereo unspecified) | – | inconclusive: 0.141 µM [inhibitor, full curve, poor fit]
38 | Cc1ccc2nc(NC(=O)C(NS(=O)(=O)c3cccc4nsnc34)C(C)C)sc2c1 (stereo unspecified) | – | inconclusive: 100 µM [inhibitor, single point]
39 | Cc1oc(C(=O)O)cc1COc1ccc2c3c(c(=O)oc2c1C)CCC3 | – | inconclusive: 22.4 µM [inhibitor, partial curve, poor fit]
40 | CCCCN(CC)C(=O)Cn1cc2c(n1)-c1c(oc(C(=O)N3CCCC3)c1C)CC2 | inactive: -13.9% | –
41 | CC1=C(C(=O)OC(C)C)C(c2cccs2)N2C(=O)C(C)SC2=N1 (stereo unspecified) | – | inconclusive: 7.08 µM [inhibitor, full curve]
42 | CCN(CCCNC(=O)CN1N=C(c2ccc(C)cc2)CCC1=O)c1ccccc1 | – | inconclusive: 39.8 µM [inhibitor, single point]
43 | Cc1cccc(C)c1OCC(=O)NNC(=S)NC(=O)C1CC1 | – | inconclusive: 2 µM [inhibitor, partial curve, poor fit]
44 | COc1ccc(C(=O)N=c2c(C#N)cc3c(=O)n4cccc(C)c4nc3n2Cc2ccco2)cc1 | – | inconclusive: 89.1 µM [inhibitor, single point]

Row | Compound | activity change, negative = inhibition | Potency
45 | CCOc1ccc(CC(=O)NCc2ccc3c(c2)CCN3C(=O)c2ccc(F)cc2)cc1OCC | inactive: 2.67% | –
46 | O=C(CN(C(=O)CCC(=O)Nc1ccccn1)c1ccc2c(c1)OCO2)NCc1ccco1 | – | inconclusive: 28.2 µM [inhibitor, full curve]
47 | COc1ccccc1CNC(=O)CCC(=O)Nc1nnc(C(C)C)s1 | – | inconclusive: 89.1 µM [inhibitor, single point]
48 | CCn1cc(CN2CCC(n3nccc3NC(=O)c3ccccc3C)CC2)c(C)n1 | inactive: 31.6% | –
49 | COc1ccc(CCn2cnc3c([nH]c4ccccc43)c2=O)cc1 | – | inconclusive: 63.1 µM [inhibitor, partial curve, poor fit]
50 | COc1cc(NC(=O)C2CCN(S(=O)(=O)c3c(C)noc3/C=C/c3c(C)cc(C)cc3C)CC2)cc(OC)c1 | inactive: 2.12% | –
51 | CC(C)c1nc(CNC(=O)CC2C(=O)NCCN2Cc2cccc(F)c2F)cs1 (stereo unspecified) | – | inconclusive: 3.98 µM [inhibitor, single point]
52 | CCN(Cc1ccccc1)S(=O)(=O)c1ccc(F)c(C(=O)Nc2ccc(C(C)C)cc2)c1 | inactive: 11% | –
53 | Cc1cc(NC(C)C)n2c(nc3ccccc32)c1C#N | – | inconclusive: 100 µM [inhibitor, partial curve, poor fit]
54 | CCn1cc(/C=N\NC(=O)c2ccc3c(c2)c(C)c(C)n3Cc2ccccc2)c(C)n1 | – | inconclusive: 20 µM [inhibitor, full curve, poor fit]
55 | Oc1c(C(Nc2ccccn2)c2ccccn2)ccc2cccnc12 (stereo unspecified) | inactive: 12% | –
56 | Cc1cc(C)c(NC(=O)COC(=O)/C=C/c2cccs2)c(C)c1 | inactive: 38.9% | –
57 | O=C1CSC(c2ccc([N+](=O)[O-])cc2)N1Cc1ccccc1 (stereo unspecified) | – | inconclusive: 100 µM [inhibitor, single point]
58 | O=c1c2ccccc2nc(-c2ccc(Cl)cc2)n1CCCCOc1ccc(F)cc1 | – | inconclusive: 0.501 µM [inhibitor, partial curve]
59 | Cc1ccc(NC(=O)CN2C(=O)c3ccccc3Sc3ncccc32)c(C)c1 | inactive: -0.612% | –
60 | Cc1ccc(NC(=O)c2sc3nc[nH]c(=O)c3c2C)cc1C | inactive: 1.63% | –
61 | Cc1noc(NS(=O)(=O)c2ccc(NC(=O)/C=C/c3ccc(C(C)C)cc3)cc2)c1C | – | inconclusive: 89.1 µM [inhibitor, single point]
62 | O=c1ccc(C(F)(F)F)cn1Cc1cc(=O)n2ccsc2n1 | – | inconclusive: 8.91 µM [inhibitor, full curve]
63 | CC(=O)c1ccc(NC(=O)c2nn(C)c3c2COc2ccccc2-3)cc1 | – | inconclusive: 89.1 µM [inhibitor, single point]
64 | COc1ccc2c(Cl)c(C(=O)NCc3ccco3)sc2c1 | – | inconclusive: 7.08 µM [inhibitor, full curve]
65 | O=C(Nc1nnc(-c2ccc(F)cc2)o1)c1ccc(S(=O)(=O)N2CCOCC2)cc1 | – | inconclusive: 0.282 µM [inhibitor, full curve, poor fit]
66 | O=C(CSc1oc(-c2ccco2)nc1S(=O)(=O)c1ccccc1)NCC1CCCO1 (stereo unspecified) | inactive: 28.2% | –

Molecules shown so far that contain a halogen (15):
Row | Compound | activity change, negative = inhibition | Potency
12 | Fc1ccc(-c2nc3c(-c4ccc(Cl)cc4)cnn3cc2CCN2CCOCC2)cc1 | – | inconclusive: 39.8 µM [inhibitor, single point]
17 | O=C(O)c1[nH]c2ccccc2c1C(c1cc(Br)ccc1O)c1c(C(=O)O)[nH]c2ccccc12 | – | active: 79.4 µM
18 | CCn1c(=O)c2cc(C(=O)Nc3cc(C)c(Cl)cc3OC)sc2c2ccccc21 | inactive: 7.56% | –
22 | Cc1nnc(N2CCCC(C(=O)Nc3ccccc3C(F)(F)F)C2)c2nn(-c3ccccc3)c(C)c12 (stereo unspecified) | – | inconclusive: 89.1 µM [inhibitor, single point]
25 | Cc1cc(Cl)c2oc(C(=O)N(C)Cc3cc(C)[nH]n3)c(C)c2c1 | – | inconclusive: 2.82 µM [inhibitor, single point]
29 | O=C(c1ccc(Cl)c(S(=O)(=O)N2CCCC2)c1)N1CCN(c2ccc(F)cc2)CC1 | – | inconclusive: 22.4 µM [inhibitor, full curve]
31 | CCOC(=O)Cn1c(=O)cc(C)c2c(C)nn(-c3cccc(F)c3)c21 | – | inconclusive: 79.4 µM [inhibitor, single point]
35 | COCCOc1cc(NC(=O)c2sccc2Oc2ccc([N+](=O)[O-])cc2F)c(Cl)cc1Cl | – | inconclusive: 79.4 µM [inhibitor, single point]
45 | CCOc1ccc(CC(=O)NCc2ccc3c(c2)CCN3C(=O)c2ccc(F)cc2)cc1OCC | inactive: 2.67% | –
51 | CC(C)c1nc(CNC(=O)CC2C(=O)NCCN2Cc2cccc(F)c2F)cs1 (stereo unspecified) | – | inconclusive: 3.98 µM [inhibitor, single point]
52 | CCN(Cc1ccccc1)S(=O)(=O)c1ccc(F)c(C(=O)Nc2ccc(C(C)C)cc2)c1 | inactive: 11% | –
58 | O=c1c2ccccc2nc(-c2ccc(Cl)cc2)n1CCCCOc1ccc(F)cc1 | – | inconclusive: 0.501 µM [inhibitor, partial curve]
62 | O=c1ccc(C(F)(F)F)cn1Cc1cc(=O)n2ccsc2n1 | – | inconclusive: 8.91 µM [inhibitor, full curve]
64 | COc1ccc2c(Cl)c(C(=O)NCc3ccco3)sc2c1 | – | inconclusive: 7.08 µM [inhibitor, full curve]
65 | O=C(Nc1nnc(-c2ccc(F)cc2)o1)c1ccc(S(=O)(=O)N2CCOCC2)cc1 | – | inconclusive: 0.282 µM [inhibitor, full curve, poor fit]
